This passage reports binding results from article PMC6051672.

This assay concerns the target T1, T18-YneA (Bacillus subtilis) (UniProt Q45056).
T1 sequence: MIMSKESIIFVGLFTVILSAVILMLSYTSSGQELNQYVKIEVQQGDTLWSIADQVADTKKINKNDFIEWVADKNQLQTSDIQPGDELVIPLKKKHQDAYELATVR
The experiment in a line: two-hybrid; bacterial two-hybrid, T18 and T25 fusion plasmids co-transformed into E. coli BTH101; spotted on LB agar with ampicillin, kanamycin, 0.5 mM IPTG and 40 ug/mL X-gal; 30°C for 48 hours, then room temperature for 24 hours.

Results are given in words; binding and its absence hold for the method and conditions named. Some results given as binding are weak or reduced against the parent protein; the word gives no strength.

B1: T25-CtpA-S297A (enzyme, UniProt O34666 1-466)
chain: MKRQLKLFFIVLITAVVASALTLFITGNSSILGQKSASTGDSKFDKLNKAYEQIKSDYYQKTDDDKLVDGAIKGMIQSLDDPYSTYMDQEQAKSFDETISASFEGIGAQVEEKDGEILIVSPIKGSPAEKAGIKPRDQIIKVNGKSVKGMNVNEAVALIRGKKGTKVKLELNRAGVGNIDLSIKRDTIPVETVYSEMKDNNIGEIQITSFSETTAKELTDAIDSLEKKGAKGYILDLRGNPGGLMEQAITMSNLFIDKGKNIMQVEYKNGSKEVMKAEKERKVTKPTVVLVNDGTAAAAEIMAAALHESSNVPLIGETTFGKGTVQTAKEYDDGSTVKLTVAKWLTADGEWIHKKGIKPQVKAELPDYAKLPYLDADKTYKSGDTGTNVKVAQKMLKALGYKVKVNSMYDQDFVSVVKQFQKKEKLNETGILTGDTTTKLMIELQKKLSDNDTQMEKAIETLKKEM
For the molecule B1, the binding entry was “binds”.

B2: T25-YlbL-S234A (enzyme, UniProt O34470 1-341)
chain: MLRKKHFSWMLVILILIAVLSFIKLPYYITKPGEATELASLIKVEGGYPEKGSLSLMTVKVGPANPFTYVWAKMHPYYEIVPDESIKEEGESDKEYMKRQLQMMKSSQENAVIAAYQKAGKKVSYSFNGIYASSVVENMPAKGKIEVGDKIISADGKNYQSAEKLIDYISSKKAGDKVTLKIEREEKEKRVTLTLKQFPDEPDRAGIGVSLYTDRNVKVEPDIDFEIENIGGPAAGLMMSLEIYNQLTKPDETKGYDIAGTGTIDVDGKVGPIGGIDQKVVAADKAGKDIFFAPNQNGASNSDYKNAVKTAKDIDSNMKIVPVDTMQDAIDYLNKLKAKST
As for B2, the binding entry is recorded as “binds”.
